The other results are listed elsewhere or left out. Most values lie at the level of the controls, where differences are scatter.
Compound: CN[C@@H]1C[C@H]2O[C@@](C)([C@@H]1OC)n1c3ccccc3c3c4c(c5c6ccccc6n2c5c31)C(=O)NC4 [staurosporine]
Experiment: log2 fold change of tryptic peptide abundance, ligand vs vehicle (limited proteolysis) (log2 ratio); higher = more trypsin-susceptible (destabilized)
Settings: ligand concentration: 20 uM; sample: mouse liver crude lysate; replicate design: treated separately

Protein sequences, listed by entry. Tags and fused reporters are not part of them. Lines headed by an entry give the natural chain unless they say otherwise; changes in a name come on top.
UniProt Q80YF9: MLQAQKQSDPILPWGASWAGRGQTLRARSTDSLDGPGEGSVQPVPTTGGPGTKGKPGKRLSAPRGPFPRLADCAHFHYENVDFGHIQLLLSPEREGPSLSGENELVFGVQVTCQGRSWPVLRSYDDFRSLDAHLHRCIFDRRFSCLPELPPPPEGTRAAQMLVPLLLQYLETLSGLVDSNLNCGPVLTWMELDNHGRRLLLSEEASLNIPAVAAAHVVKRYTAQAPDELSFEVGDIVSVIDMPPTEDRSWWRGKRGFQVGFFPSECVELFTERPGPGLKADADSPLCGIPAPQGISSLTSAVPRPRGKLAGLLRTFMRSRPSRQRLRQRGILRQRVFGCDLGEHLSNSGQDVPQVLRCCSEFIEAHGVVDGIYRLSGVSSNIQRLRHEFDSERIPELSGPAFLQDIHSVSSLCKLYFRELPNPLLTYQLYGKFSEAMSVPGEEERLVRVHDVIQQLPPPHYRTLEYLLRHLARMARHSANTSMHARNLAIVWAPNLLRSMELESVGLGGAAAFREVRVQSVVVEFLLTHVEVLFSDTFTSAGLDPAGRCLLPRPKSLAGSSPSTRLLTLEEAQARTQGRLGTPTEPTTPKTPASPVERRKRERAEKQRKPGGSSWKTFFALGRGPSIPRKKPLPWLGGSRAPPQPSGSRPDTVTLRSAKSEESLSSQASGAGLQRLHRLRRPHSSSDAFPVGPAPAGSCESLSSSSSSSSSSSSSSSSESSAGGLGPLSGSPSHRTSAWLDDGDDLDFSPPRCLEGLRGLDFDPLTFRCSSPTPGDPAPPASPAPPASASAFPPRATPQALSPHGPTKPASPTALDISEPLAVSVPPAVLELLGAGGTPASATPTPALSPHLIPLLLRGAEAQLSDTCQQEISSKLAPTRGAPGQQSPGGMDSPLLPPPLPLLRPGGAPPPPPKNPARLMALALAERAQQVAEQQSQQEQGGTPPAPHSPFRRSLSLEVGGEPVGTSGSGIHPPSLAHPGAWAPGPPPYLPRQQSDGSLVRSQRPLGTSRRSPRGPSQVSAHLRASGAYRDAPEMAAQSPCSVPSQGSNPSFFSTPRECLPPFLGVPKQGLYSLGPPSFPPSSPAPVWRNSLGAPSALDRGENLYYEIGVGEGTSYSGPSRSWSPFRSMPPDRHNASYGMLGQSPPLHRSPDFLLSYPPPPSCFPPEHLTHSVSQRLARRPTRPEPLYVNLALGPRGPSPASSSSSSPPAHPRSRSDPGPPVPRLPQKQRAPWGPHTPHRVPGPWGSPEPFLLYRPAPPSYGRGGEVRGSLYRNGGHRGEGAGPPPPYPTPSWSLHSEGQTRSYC
UniProt Q80WQ4: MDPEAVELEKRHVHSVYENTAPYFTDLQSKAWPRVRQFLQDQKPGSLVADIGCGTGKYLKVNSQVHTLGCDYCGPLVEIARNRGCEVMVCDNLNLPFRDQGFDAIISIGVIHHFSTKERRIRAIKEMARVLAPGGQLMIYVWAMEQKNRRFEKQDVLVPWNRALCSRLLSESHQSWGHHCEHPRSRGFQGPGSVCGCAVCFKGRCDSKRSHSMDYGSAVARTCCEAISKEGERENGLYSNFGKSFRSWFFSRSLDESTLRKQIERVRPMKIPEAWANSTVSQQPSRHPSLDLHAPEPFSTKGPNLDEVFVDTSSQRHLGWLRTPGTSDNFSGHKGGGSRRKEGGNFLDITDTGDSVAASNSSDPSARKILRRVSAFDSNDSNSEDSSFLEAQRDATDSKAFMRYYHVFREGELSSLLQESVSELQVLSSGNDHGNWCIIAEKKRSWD
UniProt Q8BH05: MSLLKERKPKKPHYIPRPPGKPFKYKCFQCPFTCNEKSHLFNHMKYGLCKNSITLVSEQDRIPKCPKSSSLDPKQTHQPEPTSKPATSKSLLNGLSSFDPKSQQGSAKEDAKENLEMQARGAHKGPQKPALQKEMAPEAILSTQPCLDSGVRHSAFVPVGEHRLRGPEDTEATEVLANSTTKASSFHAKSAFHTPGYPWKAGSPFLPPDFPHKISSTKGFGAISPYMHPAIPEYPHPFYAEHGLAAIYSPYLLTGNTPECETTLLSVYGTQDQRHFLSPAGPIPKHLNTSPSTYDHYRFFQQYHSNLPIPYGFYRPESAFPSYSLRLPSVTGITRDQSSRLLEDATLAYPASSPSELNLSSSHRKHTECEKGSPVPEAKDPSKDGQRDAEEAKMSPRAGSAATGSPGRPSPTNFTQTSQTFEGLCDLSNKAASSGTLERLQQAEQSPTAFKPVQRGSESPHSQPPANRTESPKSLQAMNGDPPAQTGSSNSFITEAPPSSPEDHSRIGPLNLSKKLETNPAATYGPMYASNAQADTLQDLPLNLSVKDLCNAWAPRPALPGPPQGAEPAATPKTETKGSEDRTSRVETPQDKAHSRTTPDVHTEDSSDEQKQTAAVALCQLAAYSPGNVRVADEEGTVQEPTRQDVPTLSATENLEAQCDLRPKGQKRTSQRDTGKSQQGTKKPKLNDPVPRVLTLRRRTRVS
UniProt Q8BG30, whole entry: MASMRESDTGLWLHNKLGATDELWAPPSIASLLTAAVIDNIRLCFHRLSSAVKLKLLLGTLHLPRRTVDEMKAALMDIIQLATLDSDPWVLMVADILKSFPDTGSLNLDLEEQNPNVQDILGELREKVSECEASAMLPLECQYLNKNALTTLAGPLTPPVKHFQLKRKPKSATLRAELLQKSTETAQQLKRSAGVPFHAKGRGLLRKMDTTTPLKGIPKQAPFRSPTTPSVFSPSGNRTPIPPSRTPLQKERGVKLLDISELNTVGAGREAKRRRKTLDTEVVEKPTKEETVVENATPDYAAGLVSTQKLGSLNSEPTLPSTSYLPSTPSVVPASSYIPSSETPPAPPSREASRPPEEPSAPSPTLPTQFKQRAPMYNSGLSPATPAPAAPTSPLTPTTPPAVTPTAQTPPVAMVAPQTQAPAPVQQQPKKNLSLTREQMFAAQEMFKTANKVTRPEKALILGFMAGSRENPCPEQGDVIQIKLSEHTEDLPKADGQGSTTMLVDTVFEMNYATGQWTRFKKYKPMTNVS
UniProt Q8BGV0: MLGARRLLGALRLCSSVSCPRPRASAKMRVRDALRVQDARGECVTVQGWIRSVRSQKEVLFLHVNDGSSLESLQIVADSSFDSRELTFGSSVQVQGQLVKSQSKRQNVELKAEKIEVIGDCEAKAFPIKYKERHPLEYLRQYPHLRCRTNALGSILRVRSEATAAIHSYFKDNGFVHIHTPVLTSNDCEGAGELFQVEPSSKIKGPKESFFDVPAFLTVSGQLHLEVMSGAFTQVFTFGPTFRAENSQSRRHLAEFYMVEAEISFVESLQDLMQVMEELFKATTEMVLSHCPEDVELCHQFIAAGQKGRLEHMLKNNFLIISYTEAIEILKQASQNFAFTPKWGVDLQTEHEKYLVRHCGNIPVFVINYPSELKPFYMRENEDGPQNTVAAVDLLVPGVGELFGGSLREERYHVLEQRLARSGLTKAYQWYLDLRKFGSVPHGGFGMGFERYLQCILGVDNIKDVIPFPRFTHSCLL
UniProt Q80ZU4: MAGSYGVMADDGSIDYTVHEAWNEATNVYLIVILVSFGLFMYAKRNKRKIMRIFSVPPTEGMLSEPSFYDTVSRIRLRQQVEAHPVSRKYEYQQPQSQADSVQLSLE
UniProt Q80WP8: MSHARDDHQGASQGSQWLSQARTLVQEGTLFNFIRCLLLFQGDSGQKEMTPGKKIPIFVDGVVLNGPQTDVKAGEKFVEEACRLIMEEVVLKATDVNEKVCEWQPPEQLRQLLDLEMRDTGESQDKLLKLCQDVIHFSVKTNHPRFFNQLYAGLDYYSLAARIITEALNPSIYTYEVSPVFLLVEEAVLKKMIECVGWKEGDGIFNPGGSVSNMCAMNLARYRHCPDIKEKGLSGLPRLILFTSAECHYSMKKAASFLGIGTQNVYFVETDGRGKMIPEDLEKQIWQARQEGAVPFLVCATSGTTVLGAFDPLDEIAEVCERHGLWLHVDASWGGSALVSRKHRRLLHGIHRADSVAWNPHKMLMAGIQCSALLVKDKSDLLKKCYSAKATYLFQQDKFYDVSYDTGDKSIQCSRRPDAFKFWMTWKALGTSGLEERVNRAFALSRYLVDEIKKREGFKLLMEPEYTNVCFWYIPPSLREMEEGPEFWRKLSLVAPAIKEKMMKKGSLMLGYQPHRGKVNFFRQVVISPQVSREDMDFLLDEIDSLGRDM
UniProt Q80ZM3: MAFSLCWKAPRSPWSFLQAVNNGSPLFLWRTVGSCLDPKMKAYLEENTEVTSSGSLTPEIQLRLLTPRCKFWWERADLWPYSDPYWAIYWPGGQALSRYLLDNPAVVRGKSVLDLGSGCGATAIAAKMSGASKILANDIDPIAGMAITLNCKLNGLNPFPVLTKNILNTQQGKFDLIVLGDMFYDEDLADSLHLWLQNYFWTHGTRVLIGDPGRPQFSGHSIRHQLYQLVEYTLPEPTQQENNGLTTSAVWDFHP
UniProt Q80Y55: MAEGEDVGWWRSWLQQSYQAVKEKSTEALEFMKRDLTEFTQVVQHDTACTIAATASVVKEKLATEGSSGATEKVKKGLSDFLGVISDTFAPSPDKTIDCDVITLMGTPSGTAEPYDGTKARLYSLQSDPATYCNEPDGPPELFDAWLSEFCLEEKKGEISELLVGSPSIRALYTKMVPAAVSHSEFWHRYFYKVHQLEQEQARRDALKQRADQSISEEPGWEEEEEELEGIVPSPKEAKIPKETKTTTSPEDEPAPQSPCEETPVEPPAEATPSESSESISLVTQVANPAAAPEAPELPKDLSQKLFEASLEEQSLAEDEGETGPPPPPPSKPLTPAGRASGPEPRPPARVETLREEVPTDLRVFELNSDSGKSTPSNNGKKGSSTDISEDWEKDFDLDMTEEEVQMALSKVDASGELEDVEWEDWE
UniProt Q8BGZ4, whole entry: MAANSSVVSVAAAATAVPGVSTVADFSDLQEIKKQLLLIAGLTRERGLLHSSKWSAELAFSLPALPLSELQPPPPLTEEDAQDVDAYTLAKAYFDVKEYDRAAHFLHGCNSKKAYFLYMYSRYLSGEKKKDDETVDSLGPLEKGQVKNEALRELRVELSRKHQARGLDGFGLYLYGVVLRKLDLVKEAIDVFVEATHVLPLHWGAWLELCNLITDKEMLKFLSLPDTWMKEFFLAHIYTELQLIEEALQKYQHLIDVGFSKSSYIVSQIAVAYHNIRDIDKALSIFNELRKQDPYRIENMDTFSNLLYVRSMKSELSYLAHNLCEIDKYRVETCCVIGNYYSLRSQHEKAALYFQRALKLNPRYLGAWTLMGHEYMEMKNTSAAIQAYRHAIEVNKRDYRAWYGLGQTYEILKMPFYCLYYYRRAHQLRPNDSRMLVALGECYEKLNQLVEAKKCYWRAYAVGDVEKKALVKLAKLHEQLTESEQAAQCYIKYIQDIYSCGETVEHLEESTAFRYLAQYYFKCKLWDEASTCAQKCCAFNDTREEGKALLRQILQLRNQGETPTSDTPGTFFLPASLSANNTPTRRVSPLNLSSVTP
UniProt Q8BG51: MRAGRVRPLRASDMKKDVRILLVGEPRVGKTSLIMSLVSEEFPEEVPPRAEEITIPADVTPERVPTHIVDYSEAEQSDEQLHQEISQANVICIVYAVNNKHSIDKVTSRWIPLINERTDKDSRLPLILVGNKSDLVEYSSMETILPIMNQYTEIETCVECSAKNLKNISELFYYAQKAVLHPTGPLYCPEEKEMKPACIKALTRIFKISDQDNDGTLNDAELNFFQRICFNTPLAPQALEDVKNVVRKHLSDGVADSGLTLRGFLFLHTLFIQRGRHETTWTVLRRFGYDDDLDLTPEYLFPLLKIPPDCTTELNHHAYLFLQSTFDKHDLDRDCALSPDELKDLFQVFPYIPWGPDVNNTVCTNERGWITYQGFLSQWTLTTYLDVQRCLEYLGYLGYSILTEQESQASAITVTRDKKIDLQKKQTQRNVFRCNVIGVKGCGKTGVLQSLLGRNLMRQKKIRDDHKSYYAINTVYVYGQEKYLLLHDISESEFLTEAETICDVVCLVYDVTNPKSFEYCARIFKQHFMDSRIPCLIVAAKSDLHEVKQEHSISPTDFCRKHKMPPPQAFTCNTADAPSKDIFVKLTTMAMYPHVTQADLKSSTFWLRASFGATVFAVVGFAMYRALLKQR
UniProt Q811S7: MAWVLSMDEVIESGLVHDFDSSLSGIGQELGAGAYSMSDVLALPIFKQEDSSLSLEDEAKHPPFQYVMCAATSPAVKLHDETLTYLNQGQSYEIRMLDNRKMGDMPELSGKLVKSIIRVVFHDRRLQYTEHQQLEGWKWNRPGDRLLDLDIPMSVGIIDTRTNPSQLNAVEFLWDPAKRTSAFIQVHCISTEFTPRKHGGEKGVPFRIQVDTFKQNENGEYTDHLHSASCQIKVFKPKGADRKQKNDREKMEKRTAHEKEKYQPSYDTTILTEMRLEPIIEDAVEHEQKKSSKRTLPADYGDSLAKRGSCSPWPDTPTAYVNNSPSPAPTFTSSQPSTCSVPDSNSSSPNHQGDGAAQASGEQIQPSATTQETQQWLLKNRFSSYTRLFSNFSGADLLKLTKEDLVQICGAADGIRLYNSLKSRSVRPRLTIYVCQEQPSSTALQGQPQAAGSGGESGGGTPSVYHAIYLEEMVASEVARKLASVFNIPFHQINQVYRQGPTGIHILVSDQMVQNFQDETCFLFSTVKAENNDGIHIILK

| Target | log2 fold change |
| --- | --- |
| UniProt Q80YF9 (peptide sequence: LLTLEEAQAR, peptide start residue: 597) | -0.271 |
| UniProt Q80XC3 (peptide sequence: FGFLHEEELPYHNAAADR, peptide start residue: 48) | -0.584 |
| UniProt Q8BFU3 (peptide sequence: SKQEWETR, peptide start residue: 393) | 0.174 |
| UniProt Q80WQ4 (peptide sequence: TPGTSDNFSGHK, peptide start residue: 323) | -0.15 |
| UniProt Q8BH05 (peptide sequence: HLNTSPSTYDHYR, peptide start residue: 286) | -0.634 |
| UniProt Q8BGQ4 (peptide sequence: DVVPQAAAR, peptide start residue: 102) | 0.171 |
| UniProt Q80X50 (peptide sequence: RYPSSISSSPQKDLTQAK, peptide start residue: 621) | 1.16 |
| UniProt Q80VJ2 (peptide sequence: VAAPQDGSPR, peptide start residue: 41) | 0.131 |
| UniProt Q8BG30 (peptide sequence: LLLGTLHLPR, peptide start residue: 56) | 0.979 |
| UniProt Q8BGT5 (peptide sequence: GGYMEVINLHPEIK, peptide start residue: 350) | -0.452 |
| UniProt Q80YR4 (peptide sequence: AEVPVTIVVNGHSEGSALVR, peptide start residue: 623) | 0.415 |
| UniProt Q8BHF7 (peptide sequence: LLGLLPGRPGLAALLGR, peptide start residue: 14) | 0.213 |
| UniProt Q80X71 (peptide sequence: SAYVSYDAEKR, peptide start residue: 131) | -0.0678 |
| UniProt Q8BGV0 (peptide sequence: WGVDLQTEHEK, peptide start residue: 343) | -0.972 |
| UniProt Q80ZU4 (peptide sequence: QQVEAHPVSR, peptide start residue: 79) | -0.151 |
| UniProt Q80W37 (peptide sequence: RLDYVNHAR, peptide start residue: 55) | -0.399 |
| UniProt Q811M1 (peptide sequence: SSSSELPSHCHIDRK, peptide start residue: 216) | 0.147 |
| UniProt Q8BGS2 (peptide sequence: TLTPEQWTR, peptide start residue: 74) | 0.115 |

Two records drawn at random from those above:

| Target | log2 fold change |
| --- | --- |
| UniProt Q8BHF7 (peptide sequence: LLGLLPGRPGLAALLGR, peptide start residue: 14) | 0.213 |
| UniProt Q80X71 (peptide sequence: SAYVSYDAEKR, peptide start residue: 131) | -0.0678 |

Continuation.

| Target | log2 fold change |
| --- | --- |
| UniProt Q80WP8 (peptide sequence: ADSVAWNPHK, peptide start residue: 296) | 0.171 |
| UniProt Q80ZM3 (peptide sequence: VLIGDPGRPQFSGHSIR, peptide start residue: 207) | -0.0395 |
| UniProt Q80Y55 (peptide sequence: SWLQQSYQAVK, peptide start residue: 12) | 0.161 |
| UniProt Q8BGW5 (peptide sequence: GCLTLYTGR, peptide start residue: 84) | -0.105 |
| UniProt Q8BHL8 (peptide sequence: SGIITPIHEQWEK, peptide start residue: 136) | -0.0627 |
| UniProt Q8BFQ8 (peptide sequence: AYASPAKLESIDGAR, peptide start residue: 71) | 0.386 |
| UniProt Q8BGC3 (peptide sequence: QASPYSPLTK, peptide start residue: 221) | -0.314 |
| UniProt Q8BH07 (peptide sequence: NGIFPATAAK, peptide start residue: 88) | 0.172 |
| UniProt Q80WQ2 (peptide sequence: LAADPDPNVK, peptide start residue: 142) | -0.232 |
| UniProt Q8BGV9 (peptide sequence: FLTAWNNVK, peptide start residue: 69) | 0.144 |
| UniProt Q8BFY9 (peptide sequence: LIPVLVNGMK, peptide start residue: 308) | -0.159 |
| UniProt Q8BGZ4 (peptide sequence: CCAFNDTREEGK, peptide start residue: 536) | 0.533 |
| UniProt Q8BG51 (peptide sequence: HSIDKVTSR, peptide start residue: 101) | 0.355 |
| UniProt Q811P8 (peptide sequence: SLLVSSPSTK, peptide start residue: 587) | -0.278 |
| UniProt Q811D0 (peptide sequence: AVLGDDEITREPR, peptide start residue: 453) | -0.504 |
| UniProt Q80X90 (peptide sequence: YGGPNHISR, peptide start residue: 2456) | 0.627 |
| UniProt Q8BGR9 (peptide sequence: GLIDVKPLGVIWGK, peptide start residue: 225) | 0.296 |
| UniProt Q811S7 (peptide sequence: QNENGEYTDHLHSASCQIK, peptide start residue: 215) | -0.474 |

Source: the supplement of paper PMC12819154, “High-throughput peptide-centric local stability assay extends protein–ligand identification to membrane proteins, tissues and bacteria” (Nature Structural & Molecular Biology, 2025)
